Data: PubChem BioAssay AID504847 (National Center for Advancing Translational Sciences (NCATS), 2011)
Values joined by “and” are separate entries in the source; they are usually repeats but may differ in a detail not shown here. Equal values may be shown once. Hit rate of the full screen: of about 400,000 compounds, about 3,700 (0.93%) were called active. Inconclusive results, whose numbers are uncertain, are shown with a selection of clear calls. Calls follow the shape of the dose curve; as a rule, active = well fitted inhibition curve with a large enough effect; inconclusive = small, poorly fitted or top-dose-only effect, or another doubt; inactive = no such curve, though single readings can be large or run the other way. Where the call is inconclusive, the potency comes from a doubtful curve fit.
% is scaled to controls: 0 for no effect and ±100 for the full control effect; potency is read from the fitted curve at half-maximal effect.

Protein sequences, listed by entry. Tags and fused reporters are not part of them. Lines headed by an entry give the natural chain unless they say otherwise; changes in a name come on top.
UniProt P11473: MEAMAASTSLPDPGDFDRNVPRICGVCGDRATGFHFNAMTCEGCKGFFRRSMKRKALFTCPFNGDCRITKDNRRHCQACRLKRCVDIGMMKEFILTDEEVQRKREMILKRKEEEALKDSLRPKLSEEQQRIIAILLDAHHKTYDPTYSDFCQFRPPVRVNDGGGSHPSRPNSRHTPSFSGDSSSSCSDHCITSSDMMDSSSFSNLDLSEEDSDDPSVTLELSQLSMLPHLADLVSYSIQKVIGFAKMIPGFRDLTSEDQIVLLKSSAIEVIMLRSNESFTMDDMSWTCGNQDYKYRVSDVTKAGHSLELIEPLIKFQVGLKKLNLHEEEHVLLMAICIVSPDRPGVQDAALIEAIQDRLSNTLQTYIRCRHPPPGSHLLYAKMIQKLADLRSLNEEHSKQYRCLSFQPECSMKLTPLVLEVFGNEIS

The compounds below were run against Vitamin D3 receptor (Homo sapiens) (UniProt P11473) (assay: Inhibitors of the vitamin D receptor (VDR): qHTS). Details: VDR-SRC2-3 peptide fluorescence polarization, 2 h; max response, negative = inhibition: hits give low values.
How it was run: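 Fluorescence polarization assay measuring small-molecule disruption of VDR binding to the coregulator peptide SRC2-3. Compounds were pin-transferred (23 nl) into the reagent mix and incubated 2 h at room temperature before reading.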
With `CN(Cc1ccco1)c1ncnc2ccc(-c3ccccc3C(F)(F)F)cc12` the Potency was active: 31.6 µM. In the case of `Cc1ccnc(OC(C(=O)O)C(OCc2ccccc2)(c2ccc(F)cc2)c2ccc(F)cc2)n1` (stereo not given), the Potency is reported as inconclusive: 79.4 µM [inhibitor, partial curve]. In the case of `CCOC(=O)C1=C(C)OC(N)=C(C#N)C1c1cc(SCC)oc1C` (stereo not given), the Potency is reported as inconclusive: 70.8 µM [inhibitor, partial curve, poor fit]. With `CN1C(=O)C(O)(CC(=O)c2cccc(-n3cccc3)c2)c2ccccc21` (stereo not given) the Potency was inconclusive: 63.1 µM [inhibitor, partial curve, poor fit]. `O=C(COc1ccc(Br)cc1)N/N=C1/SCC(=O)N1Cc1ccco1` was tested, and the Potency was inconclusive: 39.8 µM [inhibitor, single point]. With `Cc1ccc(CNS(=O)(=O)c2ccc3[nH]c4c(c3c2)CCCCC4)cc1` the max response, negative = inhibition was inactive: 8.48%. With `O=C(Oc1oc(-c2ccco2)nc1C=Nc1ccccc1)c1ccco1` the Potency was active: 28.2 µM. `CC(C)c1ccc2c(c1)c(SC(C)(C)C)c(CC(C)(C)C(=O)O)n2Cc1ccc(Cl)cc1` was tested, and the Potency was inconclusive: 44.7 µM [inhibitor, partial curve, poor fit] and inconclusive: 50.1 µM [inhibitor, partial curve, poor fit]. For `CC(=O)Oc1ccc2nc(-c3ccco3)oc(=O)c2c1`, the Potency was inconclusive: 39.8 µM [inhibitor, single point]. For `COc1ccc(-c2cccc([C@H]3[C@@H]4C=CC[C@@H](C)[C@@H]4C(=O)N3Cc3ccccc3)c2)cc1`, the Potency was inconclusive: 112 µM [inhibitor, partial curve, poor fit]. In the case of `c1cn2c(NC3CCCCC3)c(-c3ccc(SC4CCCCC4)cc3)nc2cn1`, the max response, negative = inhibition is reported as inactive: 49.3%. In the case of `COc1ccc(-c2n[nH]c(=S)n2-c2ccccc2C)cc1OC`, the max response, negative = inhibition is reported as inactive: -0.585%. `CCOC(=O)c1c(CSc2ccccc2)n(C)c2cc(Br)c(O)c(CN(C)C)c12` was tested, and the max response, negative = inhibition was inactive: 20.2%. For `COc1ccccc1N=Cc1nc(-c2ccccc2)oc1OC(C)=O`, the Potency was inconclusive: 89.1 µM [inhibitor, partial curve, poor fit]. `CCCOc1ccc(/C=C2/C(=O)ON=C2C)cc1Cl` was tested, and the Potency was active: 17.8 µM. `COc1cccc(NC(=O)CN(C)C(=O)C23CC4CC(CC(Cl)(C4)C2)C3)c1` was tested, and the Potency was inconclusive: 79.4 µM [inhibitor, single point]. `CC1(c2ccc(Cl)cc2Cl)NC(=O)N(CC(=O)Nc2cccnc2Cl)C1=O` (stereo not given) was tested, and the Potency was inconclusive: 89.1 µM [inhibitor, single point]. In the case of `O=c1cc(CN2CCN(C/C=C/c3ccccc3)CC2)c2cc(O)c(-c3ccccc3)cc2o1`, the Potency is reported as inconclusive: 56.2 µM [inhibitor, partial curve, poor fit]. For `CCN(CC)CCNC(=O)c1cc2c(-c3cccc(OC)c3)nn(C)c2s1`, the max response, negative = inhibition was inactive: 1.58% and inactive: 12.3%. For `Cc1ccc(C(=O)N2CCN(CCc3ccncc3)CC2)cc1`, the max response, negative = inhibition was inactive: 21.6%. `CCOC(=O)C1=C(SCC)c2cc3c(n2C1=O)CCCC3` was tested, and the Potency was inconclusive: 89.1 µM [inhibitor, single point]. In the case of `COc1ccc(Cl)cc1NC(=O)NC1CCCCC1`, the Potency is reported as inconclusive: 100 µM [inhibitor, single point]. `O=c1ccc2ccc(O[C@@H]3O[C@H](CO)[C@@H](O)[C@H](O)[C@H]3O)c(O)c2o1` was tested, and the Potency was inconclusive: 89.1 µM [inhibitor, partial curve, poor fit]. `Cc1c([N+](=O)[O-])cnc(Sc2ccccc2)c1[N+](=O)[O-]` was tested, and the Potency was inconclusive: 50.1 µM [inhibitor, partial curve, poor fit]. With `CCN(CC)c1ccc(C(=C2C=CC(=[N+](CC)CC)C=C2)c2ccc(N(CC)CC)cc2)cc1` the Potency was inconclusive: 14.1 µM [inhibitor, full curve, poor fit]. With `O=c1[nH]cc(N=Cc2cc(Cl)cc(Cl)c2O)c(=O)[nH]1` the Potency was inconclusive: 89.1 µM [inhibitor, single point]. With `Cc1cccc(CNC(=O)c2ccc(NC(=O)C3=CSCCO3)cc2)c1` the Potency was inconclusive: 39.8 µM [inhibitor, single point]. `COc1ccc(Br)cc1/C=N/NC(=O)c1ccc(OC)c(OC)c1` was tested, and the Potency was inconclusive: 89.1 µM [inhibitor, single point]. In the case of `O=C(COc1ccccc1)N1CCCC1`, the max response, negative = inhibition is reported as inactive: -7.17%. For `COC(=O)/C=C1\SC(=Nc2ccccc2)NC1=O`, the Potency was inconclusive: 79.4 µM [inhibitor, partial curve]. In the case of `CCN(CC)c1ccc(NC(=O)C2CCN(S(=O)(=O)c3ccc4c(c3)oc(=O)n4C)CC2)c(C)c1`, the Potency is reported as inconclusive: 89.1 µM [inhibitor, single point]. In the case of `CC1=NOC(=O)/C1=C\c1ccc(-c2ccc(Cl)c(C(=O)O)c2)o1`, the Potency is reported as inconclusive: 56.2 µM [inhibitor, partial curve, poor fit]. In the case of `O=S(=O)(Nc1ccc(Cl)cc1)c1ccc(N2CCOCC2)c(NC(=S)NCCN2CCOCC2)c1`, the Potency is reported as inconclusive: 39.8 µM [inhibitor, single point]. For `CC(=O)NCCNc1ncnc2ccc(-c3ccccc3C)cc12`, the Potency was active: 44.7 µM. `COc1ccc(C(CCN(Cc2ccc(OC)c(OC)c2)C(C)=O)C(C)C)cc1` (stereo not given) was tested, and the max response, negative = inhibition was inactive: 6.6%. `COc1ccc(-c2cccc(-c3cc(=O)oc4ccc(C(C)(C)C)cc34)c2)cc1` was tested, and the Potency was inconclusive: 14.1 µM [inhibitor, full curve]. For `CC(=O)NC1=NN(C(C)=O)C(c2ccccc2)S1` (stereo not given), the Potency was inconclusive: 28.2 µM [inhibitor, partial curve, poor fit]. With `CC[C@H](C)[C@H](NC(=O)[C@@H](NC(=O)CNC(=O)[C@@H](N)CC(C)C)[C@@H](C)O)C(=O)N1CCC[C@H]1C(=O)NCC(=O)O` the max response, negative = inhibition was inactive: 8.65%. With `Cc1ccc2c(c1)c1nnc(SCC(=O)N3CCCc4ccccc43)nc1n2CC(=O)O` the max response, negative = inhibition was inactive: 25.9%. With `CCC(C)(C)NC(=O)C(c1sccc1C)N(Cc1ccco1)C(=O)c1csnn1` (stereo not given) the max response, negative = inhibition was inactive: -12.8%.
